{
  "source": "ChEMBL document CHEMBL4316593",
  "about": "(Eur J Med Chem, 2019)",
  "assay_type_in_all_cases": "cell-based",
  "settings_in_all_cases": "U-87MG ATCC",
  "key": {"[1]": {"assay": "Inhibition of RTK/PI3K/AKT/mTOR signaling in human U87 cells assessed as up regulation of ARMC4 gene expression at cytotoxic IC50 measured after 48 hrs relative to control"}, "[2]": {"assay": "Inhibition of RTK/PI3K/AKT/mTOR signaling in human U87 cells assessed as down regulation of UBR1 gene expression at cytotoxic IC50 measured after 48 hrs relative to control"}, "[3]": {"assay": "Inhibition of RTK/PI3K/AKT/mTOR signaling in human U87 cells assessed as down regulation of PI4K2A gene expression at cytotoxic IC50 measured after 48 hrs relative to control"}, "[4]": {"assay": "Inhibition of RTK/PI3K/AKT/mTOR signaling in human U87 cells assessed as down regulation of MEGF9 gene expression at cytotoxic IC50 measured after 48 hrs relative to control"}, "[5]": {"assay": "Inhibition of RTK/PI3K/AKT/mTOR signaling in human U87 cells assessed as up regulation of CDC25B gene expression at cytotoxic IC50 measured after 48 hrs relative to control"}, "[6]": {"assay": "Inhibition of RTK/PI3K/AKT/mTOR signaling in human U87 cells assessed as up regulation of LENG9 gene expression at cytotoxic IC50 measured after 48 hrs relative to control"}, "[7]": {"assay": "Inhibition of RTK/PI3K/AKT/mTOR signaling in human U87 cells assessed as up regulation of signal peptidase complex subunit 2 gene expression at cytotoxic IC50 measured after 48 hrs relative to control"}, "[8]": {"assay": "Inhibition of RTK/PI3K/AKT/mTOR signaling in human U87 cells assessed as down regulation of LNX2 gene expression at cytotoxic IC50 measured after 48 hrs relative to control"}, "[9]": {"assay": "Inhibition of RTK/PI3K/AKT/mTOR signaling in human U87 cells assessed as down regulation of CA2 gene expression at cytotoxic IC50 measured after 48 hrs relative to control"}, "[10]": {"assay": "Inhibition of RTK/PI3K/AKT/mTOR signaling in human U87 cells assessed as down regulation of SMC1A gene expression at cytotoxic IC50 measured after 48 hrs relative to control"}, "[11]": {"assay": "Inhibition of RTK/PI3K/AKT/mTOR signaling in human U87 cells assessed as down regulation of ST7 gene expression at cytotoxic IC50 measured after 48 hrs relative to control"}, "[12]": {"assay": "Inhibition of RTK/PI3K/AKT/mTOR signaling in human U87 cells assessed as down regulation of MTHFD2L gene expression at cytotoxic IC50 measured after 48 hrs relative to control"}, "[13]": {"assay": "Inhibition of RTK/PI3K/AKT/mTOR signaling in human U87 cells assessed as down regulation of E2F1 gene expression at cytotoxic IC50 measured after 48 hrs relative to control"}, "[14]": {"assay": "Inhibition of RTK/PI3K/AKT/mTOR signaling in human U87 cells assessed as down regulation of MRPL18 gene expression at cytotoxic IC50 measured after 48 hrs relative to control"}, "[15]": {"assay": "Inhibition of RTK/PI3K/AKT/mTOR signaling in human U87 cells assessed as down regulation of NUP107 gene expression at cytotoxic IC50 measured after 48 hrs relative to control"}, "[16]": {"assay": "Inhibition of RTK/PI3K/AKT/mTOR signaling in human U87 cells assessed as down regulation of ZNF654 gene expression at cytotoxic IC50 measured after 48 hrs relative to control"}, "[17]": {"assay": "Inhibition of RTK/PI3K/AKT/mTOR signaling in human U87 cells assessed as up regulation of aspartate beta-hydroxylase gene expression at cytotoxic IC50 measured after 48 hrs relative to control"}, "[18]": {"assay": "Inhibition of RTK/PI3K/AKT/mTOR signaling in human U87 cells assessed as down regulation of LSM11 gene expression at cytotoxic IC50 measured after 48 hrs relative to control"}, "[19]": {"assay": "Inhibition of RTK/PI3K/AKT/mTOR signaling in human U87 cells assessed as up regulation of discoidin, CUB and LCCL domain containing 2 gene expression at cytotoxic IC50 measured after 48 hrs relative to control"}, "[20]": {"assay": "Inhibition of RTK/PI3K/AKT/mTOR signaling in human U87 cells assessed as down regulation of ATAD2 gene expression at cytotoxic IC50 measured after 48 hrs relative to control"}, "[21]": {"assay": "Inhibition of RTK/PI3K/AKT/mTOR signaling in human U87 cells assessed as down regulation of ASCC2 gene expression at cytotoxic IC50 measured after 48 hrs relative to control"}, "[22]": {"assay": "Inhibition of RTK/PI3K/AKT/mTOR signaling in human U87 cells assessed as down regulation of GALNT10 gene expression at cytotoxic IC50 measured after 48 hrs relative to control"}, "[23]": {"assay": "Inhibition of RTK/PI3K/AKT/mTOR signaling in human U87 cells assessed as up regulation of EGLN3 gene expression at cytotoxic IC50 measured after 48 hrs relative to control"}, "[24]": {"assay": "Inhibition of RTK/PI3K/AKT/mTOR signaling in human U87 cells assessed as up regulation of two pore segment channel 1 gene expression at cytotoxic IC50 measured after 48 hrs relative to control"}, "[25]": {"assay": "Inhibition of RTK/PI3K/AKT/mTOR signaling in human U87 cells assessed as up regulation of adhesion G protein-coupled receptor A3 gene expression at cytotoxic IC50 measured after 48 hrs relative to control"}, "[26]": {"assay": "Inhibition of RTK/PI3K/AKT/mTOR signaling in human U87 cells assessed as down regulation of CTSL gene expression at cytotoxic IC50 measured after 48 hrs relative to control"}, "[27]": {"assay": "Inhibition of RTK/PI3K/AKT/mTOR signaling in human U87 cells assessed as up regulation of solute carrier family 25 member 37 gene expression at cytotoxic IC50 measured after 48 hrs relative to control"}, "[28]": {"assay": "Inhibition of RTK/PI3K/AKT/mTOR signaling in human U87 cells assessed as down regulation of KNTC1 gene expression at cytotoxic IC50 measured after 48 hrs relative to control"}, "[29]": {"assay": "Inhibition of RTK/PI3K/AKT/mTOR signaling in human U87 cells assessed as down regulation of AEN gene expression at cytotoxic IC50 measured after 48 hrs relative to control"}, "[30]": {"assay": "Inhibition of RTK/PI3K/AKT/mTOR signaling in human U87 cells assessed as up regulation of TLC domain containing 2 gene expression at cytotoxic IC50 measured after 48 hrs relative to control"}, "[31]": {"assay": "Inhibition of RTK/PI3K/AKT/mTOR signaling in human U87 cells assessed as up regulation of antizyme inhibitor 2 gene expression at cytotoxic IC50 measured after 48 hrs relative to control"}, "[32]": {"assay": "Inhibition of RTK/PI3K/AKT/mTOR signaling in human U87 cells assessed as down regulation of ISG20L2 gene expression at cytotoxic IC50 measured after 48 hrs relative to control"}},
  "note": "Further values from the same series stand in other lists.",
  "data": [
    {"smiles": "CC(=O)C(=NNc1ccccc1C#N)C(C)=O", "values": [
      {"measurement": "log2FC", "setting": "[1]", "value": 1.65},
      {"measurement": "log2FC", "setting": "[2]", "value": -0.785},
      {"measurement": "log2FC", "setting": "[3]", "value": -0.488},
      {"measurement": "log2FC", "setting": "[4]", "value": -1.23},
      {"measurement": "log2FC", "setting": "[5]", "value": 0.602},
      {"measurement": "log2FC", "setting": "[6]", "value": 2.03},
      {"measurement": "log2FC", "setting": "[7]", "value": 0.737},
      {"measurement": "log2FC", "setting": "[8]", "value": -0.769},
      {"measurement": "log2FC", "setting": "[9]", "value": -3.77},
      {"measurement": "log2FC", "setting": "[10]", "value": -0.449},
      {"measurement": "log2FC", "setting": "[11]", "value": -1.05},
      {"measurement": "log2FC", "setting": "[12]", "value": -1.45},
      {"measurement": "log2FC", "setting": "[13]", "value": -1.62},
      {"measurement": "log2FC", "setting": "[14]", "value": -0.949},
      {"measurement": "log2FC", "setting": "[15]", "value": -0.605},
      {"measurement": "log2FC", "setting": "[16]", "value": -0.659},
      {"measurement": "log2FC", "setting": "[17]", "value": 1.14},
      {"measurement": "log2FC", "setting": "[18]", "value": -1.1},
      {"measurement": "log2FC", "setting": "[19]", "value": 1.3},
      {"measurement": "log2FC", "setting": "[20]", "value": -1.29},
      {"measurement": "log2FC", "setting": "[21]", "value": -0.696},
      {"measurement": "log2FC", "setting": "[22]", "value": -0.715},
      {"measurement": "log2FC", "setting": "[23]", "value": 3.45},
      {"measurement": "log2FC", "setting": "[24]", "value": 1.23},
      {"measurement": "log2FC", "setting": "[25]", "value": 1.16},
      {"measurement": "log2FC", "setting": "[26]", "value": -0.648},
      {"measurement": "log2FC", "setting": "[27]", "value": 1.37},
      {"measurement": "log2FC", "setting": "[28]", "value": -0.819},
      {"measurement": "log2FC", "setting": "[29]", "value": -0.471},
      {"measurement": "log2FC", "setting": "[30]", "value": 0.974},
      {"measurement": "log2FC", "setting": "[31]", "value": 1.4},
      {"measurement": "log2FC", "setting": "[32]", "value": -0.774}
    ]}
  ]
}
